The assay deals with T1, Entamoeba histolytica actophorin (EhActo) (Entamoeba histolytica) (UniProt C4LVG4).
T1 sequence: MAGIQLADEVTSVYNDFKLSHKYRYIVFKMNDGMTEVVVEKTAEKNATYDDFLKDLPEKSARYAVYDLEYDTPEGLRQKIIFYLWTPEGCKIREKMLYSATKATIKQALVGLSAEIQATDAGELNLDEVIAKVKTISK
Nature of the assay: co-sedimentation; 5 µM F-actin and 5 µM EhP3 with 0, 2.5, 5 or 10 µM EhActo; 100,000 g 45 min 4°C, SDS-PAGE of supernatant and pellet; both purified.

No constants are given. Whether binding was seen depends on the method and setting. Binding calls can cover weak binding; strength is not graded here. Where a sequence is shown, tags or fusion partners need not be part of it.

The record followed here is article PMC8914023.

For the substance “EhP3 (Entamoeba histolytica 14-3-3 protein isoform 3)”, the binding result is “binds”.
